This note sets out measurements from patent US20120251443A1, “IMPLANTABLE CONTRAST AGENTS AND METHODS” (THE BRIGHAM AND WOMEN'S HOSPITAL, INC., priority 2009, published 2012).

This data set relates to human saphenous vein. The data set can be described thus: Quantitative MR relaxation rate measurements (R1, R2) of veins incubated in Gd-DTPA. Particulars: vein incubated in 5 mM, 3 T.

SMILES strings stand for the structures.

`O=C([O-])CN(CCN(CC(=O)[O-])CC(=O)O)CCN(CC(=O)[O-])CC(=O)O.[Gd+3]` [non-activated Gd-DTPA, Diethylenetriaminepentaacetic acid gadolinium^3+ dihydrogen]: the R1 worked out at 0.89 ± 0.03 s⁻¹ and the R2 turned out to be 10.5 ± 0.8 s⁻¹.
